Repeats are few or missing, and single values can be far off.
Compound: [O-][N+](C(C1=C(C(O)=C2)NC(C(C=C3)=CC=C3Cl)C4C1C=CC4)=C2Cl)=O
Assay: melting temperature shift (compound 7 minus DMSO); higher = compound stabilises the protein
Details: 10 µM
Method: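 Thermal proteome profiling (TMT mass spectrometry) in intact DAOY medulloblastoma cells or DAOY lysates treated with 10 µM compound 7 or DMSO, heated at 10 temperatures from 40.5 to 73.8 °C for 3 min. Melting curves were fitted with the Bioconductor TPP package, and the melting point difference between compound and vehicle is reported per protein (single curve per condition).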

The chains behind the UniProt entries cited, without tags or fusion partners. Where a name states a change or a piece, a line headed by the entry shows the natural chain unless it says otherwise.
UniProt Q16698: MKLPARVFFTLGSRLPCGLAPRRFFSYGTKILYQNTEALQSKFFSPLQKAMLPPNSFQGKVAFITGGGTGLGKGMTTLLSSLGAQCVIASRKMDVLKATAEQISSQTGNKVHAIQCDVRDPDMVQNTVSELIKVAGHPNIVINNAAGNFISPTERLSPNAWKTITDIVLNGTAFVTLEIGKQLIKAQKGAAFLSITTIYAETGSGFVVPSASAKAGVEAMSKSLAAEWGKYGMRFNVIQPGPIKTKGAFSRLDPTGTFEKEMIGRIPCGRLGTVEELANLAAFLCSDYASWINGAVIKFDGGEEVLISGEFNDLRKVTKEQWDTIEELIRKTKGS
UniProt Q6P6C2: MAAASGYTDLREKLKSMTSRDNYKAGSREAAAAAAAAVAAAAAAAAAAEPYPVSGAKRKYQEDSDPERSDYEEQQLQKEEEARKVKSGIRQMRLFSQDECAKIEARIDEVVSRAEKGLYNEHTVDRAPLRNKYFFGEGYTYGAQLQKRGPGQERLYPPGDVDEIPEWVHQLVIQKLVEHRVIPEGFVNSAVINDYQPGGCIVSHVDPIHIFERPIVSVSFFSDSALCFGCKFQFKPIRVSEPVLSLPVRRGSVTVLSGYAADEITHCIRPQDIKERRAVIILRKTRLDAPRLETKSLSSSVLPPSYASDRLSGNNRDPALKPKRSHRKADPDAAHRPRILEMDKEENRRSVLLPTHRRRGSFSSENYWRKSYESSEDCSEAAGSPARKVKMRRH
UniProt P28347, whole entry: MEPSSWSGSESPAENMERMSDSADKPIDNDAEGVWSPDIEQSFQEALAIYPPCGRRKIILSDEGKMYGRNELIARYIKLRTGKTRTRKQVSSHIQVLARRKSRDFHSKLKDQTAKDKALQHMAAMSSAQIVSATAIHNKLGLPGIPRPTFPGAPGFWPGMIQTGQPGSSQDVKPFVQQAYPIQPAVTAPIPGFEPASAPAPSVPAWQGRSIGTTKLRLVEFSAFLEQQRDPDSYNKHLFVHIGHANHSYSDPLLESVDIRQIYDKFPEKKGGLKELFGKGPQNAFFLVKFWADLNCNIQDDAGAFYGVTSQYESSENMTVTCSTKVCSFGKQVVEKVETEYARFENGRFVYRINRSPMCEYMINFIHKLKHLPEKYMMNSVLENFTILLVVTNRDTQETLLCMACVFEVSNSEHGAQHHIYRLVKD
UniProt Q9Y3S2: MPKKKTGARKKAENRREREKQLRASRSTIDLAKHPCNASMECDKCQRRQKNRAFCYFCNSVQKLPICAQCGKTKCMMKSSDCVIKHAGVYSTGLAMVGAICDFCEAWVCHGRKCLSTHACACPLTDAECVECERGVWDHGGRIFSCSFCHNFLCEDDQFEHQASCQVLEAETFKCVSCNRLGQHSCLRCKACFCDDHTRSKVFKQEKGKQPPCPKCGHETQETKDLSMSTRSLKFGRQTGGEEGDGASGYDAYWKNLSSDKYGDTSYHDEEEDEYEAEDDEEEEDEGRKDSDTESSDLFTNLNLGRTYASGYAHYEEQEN
UniProt Q96S52: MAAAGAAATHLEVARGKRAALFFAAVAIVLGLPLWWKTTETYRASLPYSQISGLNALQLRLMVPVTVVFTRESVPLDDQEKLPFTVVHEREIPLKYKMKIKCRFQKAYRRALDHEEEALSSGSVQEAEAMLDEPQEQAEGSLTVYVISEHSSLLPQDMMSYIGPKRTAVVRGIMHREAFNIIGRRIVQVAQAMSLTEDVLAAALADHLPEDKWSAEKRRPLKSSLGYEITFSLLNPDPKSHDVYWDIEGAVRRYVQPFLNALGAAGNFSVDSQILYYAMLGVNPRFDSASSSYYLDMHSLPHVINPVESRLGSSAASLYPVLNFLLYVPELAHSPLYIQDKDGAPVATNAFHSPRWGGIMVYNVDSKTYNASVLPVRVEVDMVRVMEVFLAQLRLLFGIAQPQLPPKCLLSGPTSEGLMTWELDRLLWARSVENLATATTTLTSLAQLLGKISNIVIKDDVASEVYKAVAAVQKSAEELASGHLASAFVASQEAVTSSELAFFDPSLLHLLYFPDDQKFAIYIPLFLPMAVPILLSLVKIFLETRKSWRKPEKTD
UniProt Q9H6X2: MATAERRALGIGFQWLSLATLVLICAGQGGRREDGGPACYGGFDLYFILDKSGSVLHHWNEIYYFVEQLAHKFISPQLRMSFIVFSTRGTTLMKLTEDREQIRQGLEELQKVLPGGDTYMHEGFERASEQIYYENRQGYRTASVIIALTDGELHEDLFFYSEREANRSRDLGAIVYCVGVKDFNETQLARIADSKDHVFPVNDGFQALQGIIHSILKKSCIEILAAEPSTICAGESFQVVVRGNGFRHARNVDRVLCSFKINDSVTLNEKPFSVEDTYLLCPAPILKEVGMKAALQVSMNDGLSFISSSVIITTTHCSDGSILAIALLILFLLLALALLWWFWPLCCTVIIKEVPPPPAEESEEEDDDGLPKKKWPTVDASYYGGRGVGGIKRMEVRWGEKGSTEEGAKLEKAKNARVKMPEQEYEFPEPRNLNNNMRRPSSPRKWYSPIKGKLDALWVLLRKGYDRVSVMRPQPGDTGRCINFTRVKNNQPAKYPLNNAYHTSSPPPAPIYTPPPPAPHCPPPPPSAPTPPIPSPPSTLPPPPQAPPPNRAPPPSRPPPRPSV
UniProt Q3ZCM7, whole entry: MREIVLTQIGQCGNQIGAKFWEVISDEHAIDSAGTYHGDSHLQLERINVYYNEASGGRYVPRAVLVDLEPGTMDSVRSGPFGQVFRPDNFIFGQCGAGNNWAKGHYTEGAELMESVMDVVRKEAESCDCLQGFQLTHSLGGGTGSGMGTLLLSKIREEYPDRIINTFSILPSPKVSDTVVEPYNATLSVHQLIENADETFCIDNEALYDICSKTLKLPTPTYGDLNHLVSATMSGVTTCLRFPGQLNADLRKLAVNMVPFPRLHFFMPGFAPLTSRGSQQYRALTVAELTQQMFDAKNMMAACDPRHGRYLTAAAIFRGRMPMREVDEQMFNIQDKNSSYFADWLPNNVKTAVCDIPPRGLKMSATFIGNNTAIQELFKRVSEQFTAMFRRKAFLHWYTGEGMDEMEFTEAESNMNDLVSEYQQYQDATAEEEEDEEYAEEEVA
UniProt P62877, whole entry, looked up: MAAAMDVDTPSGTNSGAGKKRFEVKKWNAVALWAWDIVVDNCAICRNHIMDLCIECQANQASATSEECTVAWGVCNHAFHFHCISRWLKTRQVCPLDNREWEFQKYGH
UniProt O15394: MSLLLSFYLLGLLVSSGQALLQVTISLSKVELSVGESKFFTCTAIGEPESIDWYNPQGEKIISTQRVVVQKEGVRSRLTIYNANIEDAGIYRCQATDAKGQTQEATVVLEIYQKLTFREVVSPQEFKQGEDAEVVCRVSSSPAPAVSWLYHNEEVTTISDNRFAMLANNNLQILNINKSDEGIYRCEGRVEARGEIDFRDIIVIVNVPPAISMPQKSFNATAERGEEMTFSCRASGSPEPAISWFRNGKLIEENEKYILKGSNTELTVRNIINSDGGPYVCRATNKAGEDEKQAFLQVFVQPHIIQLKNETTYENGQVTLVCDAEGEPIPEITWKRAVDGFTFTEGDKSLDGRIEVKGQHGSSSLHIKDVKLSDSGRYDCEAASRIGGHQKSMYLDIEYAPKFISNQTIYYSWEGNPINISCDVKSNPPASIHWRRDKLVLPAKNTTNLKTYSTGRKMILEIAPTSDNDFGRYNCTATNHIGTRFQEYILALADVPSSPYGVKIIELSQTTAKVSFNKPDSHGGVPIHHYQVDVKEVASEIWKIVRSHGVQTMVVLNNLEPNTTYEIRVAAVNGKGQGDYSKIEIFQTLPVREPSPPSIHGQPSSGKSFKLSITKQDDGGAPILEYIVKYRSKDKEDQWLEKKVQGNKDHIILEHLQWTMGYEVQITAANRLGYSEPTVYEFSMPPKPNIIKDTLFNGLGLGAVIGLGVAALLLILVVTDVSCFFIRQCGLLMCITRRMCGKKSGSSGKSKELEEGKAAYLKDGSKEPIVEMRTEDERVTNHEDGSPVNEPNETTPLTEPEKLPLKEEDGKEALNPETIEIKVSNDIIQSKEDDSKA
UniProt Q99584: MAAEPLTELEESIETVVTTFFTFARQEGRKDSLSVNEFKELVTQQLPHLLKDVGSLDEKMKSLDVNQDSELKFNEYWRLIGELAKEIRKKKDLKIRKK
UniProt O43684, whole entry: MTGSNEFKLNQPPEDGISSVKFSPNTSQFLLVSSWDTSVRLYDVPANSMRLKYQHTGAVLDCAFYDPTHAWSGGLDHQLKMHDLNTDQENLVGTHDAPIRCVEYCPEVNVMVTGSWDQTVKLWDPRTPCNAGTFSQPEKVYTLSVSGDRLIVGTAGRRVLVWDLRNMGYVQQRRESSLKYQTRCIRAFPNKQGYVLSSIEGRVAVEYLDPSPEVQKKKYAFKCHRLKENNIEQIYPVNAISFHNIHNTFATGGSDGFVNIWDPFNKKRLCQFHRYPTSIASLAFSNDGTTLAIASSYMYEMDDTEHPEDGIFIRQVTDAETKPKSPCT
UniProt Q8WWI5: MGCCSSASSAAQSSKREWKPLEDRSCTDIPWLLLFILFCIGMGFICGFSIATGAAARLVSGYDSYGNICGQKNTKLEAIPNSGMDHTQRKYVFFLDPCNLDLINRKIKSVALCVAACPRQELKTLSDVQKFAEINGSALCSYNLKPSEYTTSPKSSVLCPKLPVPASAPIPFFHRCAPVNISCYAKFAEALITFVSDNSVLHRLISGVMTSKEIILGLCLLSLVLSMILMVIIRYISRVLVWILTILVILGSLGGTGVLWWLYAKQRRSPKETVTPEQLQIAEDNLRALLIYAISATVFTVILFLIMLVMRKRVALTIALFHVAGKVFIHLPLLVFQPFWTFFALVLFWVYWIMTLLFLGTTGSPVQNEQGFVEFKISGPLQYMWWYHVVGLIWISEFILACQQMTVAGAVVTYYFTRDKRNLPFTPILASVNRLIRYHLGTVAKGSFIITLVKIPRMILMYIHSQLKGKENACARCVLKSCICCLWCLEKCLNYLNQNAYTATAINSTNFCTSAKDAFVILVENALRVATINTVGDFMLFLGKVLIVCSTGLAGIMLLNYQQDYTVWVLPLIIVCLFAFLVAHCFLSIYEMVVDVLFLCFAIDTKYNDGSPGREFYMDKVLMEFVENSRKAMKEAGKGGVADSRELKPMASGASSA
UniProt Q9NV56, whole entry: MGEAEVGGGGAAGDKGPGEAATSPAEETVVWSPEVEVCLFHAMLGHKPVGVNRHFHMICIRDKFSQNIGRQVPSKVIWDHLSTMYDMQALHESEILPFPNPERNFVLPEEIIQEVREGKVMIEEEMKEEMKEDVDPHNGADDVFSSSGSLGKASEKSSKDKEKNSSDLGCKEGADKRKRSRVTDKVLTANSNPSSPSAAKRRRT
UniProt Q6P1Q9: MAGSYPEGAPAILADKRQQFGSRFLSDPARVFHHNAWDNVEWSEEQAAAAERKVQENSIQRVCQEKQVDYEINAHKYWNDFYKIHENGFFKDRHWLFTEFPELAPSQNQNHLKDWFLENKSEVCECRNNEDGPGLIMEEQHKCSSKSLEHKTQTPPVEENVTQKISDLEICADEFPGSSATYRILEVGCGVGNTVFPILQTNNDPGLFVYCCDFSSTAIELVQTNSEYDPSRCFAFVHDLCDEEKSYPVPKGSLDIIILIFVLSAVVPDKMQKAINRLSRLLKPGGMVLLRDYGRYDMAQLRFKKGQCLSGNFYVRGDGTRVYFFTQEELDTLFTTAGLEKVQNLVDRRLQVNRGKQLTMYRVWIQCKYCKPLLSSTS
UniProt Q9BY11: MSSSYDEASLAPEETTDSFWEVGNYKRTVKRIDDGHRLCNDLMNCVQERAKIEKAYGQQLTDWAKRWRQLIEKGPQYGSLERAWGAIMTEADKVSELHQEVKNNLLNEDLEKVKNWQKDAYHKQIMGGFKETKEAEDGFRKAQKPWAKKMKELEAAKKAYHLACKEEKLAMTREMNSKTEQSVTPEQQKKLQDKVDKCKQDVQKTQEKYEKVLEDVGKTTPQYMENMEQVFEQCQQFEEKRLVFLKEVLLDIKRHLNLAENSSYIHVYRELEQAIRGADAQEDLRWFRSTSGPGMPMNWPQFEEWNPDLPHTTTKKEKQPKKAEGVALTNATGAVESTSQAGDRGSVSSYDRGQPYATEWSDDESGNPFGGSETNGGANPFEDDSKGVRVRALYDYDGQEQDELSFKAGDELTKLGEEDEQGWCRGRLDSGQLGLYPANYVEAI
UniProt Q9BT92: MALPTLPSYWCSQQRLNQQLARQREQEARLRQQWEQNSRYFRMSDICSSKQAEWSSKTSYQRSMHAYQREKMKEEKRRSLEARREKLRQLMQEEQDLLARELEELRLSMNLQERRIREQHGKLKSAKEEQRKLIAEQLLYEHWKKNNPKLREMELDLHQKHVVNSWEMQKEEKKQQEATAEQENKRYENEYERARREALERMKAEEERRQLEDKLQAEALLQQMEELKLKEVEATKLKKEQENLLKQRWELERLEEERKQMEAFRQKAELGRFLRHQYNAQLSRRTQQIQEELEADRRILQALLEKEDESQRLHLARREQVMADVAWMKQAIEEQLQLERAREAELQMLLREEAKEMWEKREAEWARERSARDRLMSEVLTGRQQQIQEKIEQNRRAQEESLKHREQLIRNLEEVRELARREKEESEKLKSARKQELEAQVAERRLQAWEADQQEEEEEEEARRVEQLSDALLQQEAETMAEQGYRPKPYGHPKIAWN

[1] = system: DAOY cell lysate, treatment time: 20 min, 4 °C
[2] = system: intact DAOY cells, treatment time: 90 min, 37 °C

Target | melting temperature shift [1] [°C] | melting temperature shift [2] [°C]
RPL14 (UniProt P50914) | 0.596 | -0.597
SEPHS1 (UniProt P49903) | 2.01 | –
UniProt Q15700 | – | 0.0994
PSMA5 (UniProt P28066) | 0.56 | 0.447
DHRS7B (UniProt Q6IAN0) | 1.01 | 0.0274
DECR1 (UniProt Q16698) | 1.45 | -0.11
IFIT1 (UniProt P09914) | 0.598 | –
SUN2 (UniProt Q9UH99) | 3.1 | -0.0206
MED12 (UniProt Q93074) | -0.765 | –
ALKBH5 (UniProt Q6P6C2) | 1.18 | 2.69
SAMD9 (UniProt Q5K651) | -0.301 | –
DCTPP1 (UniProt Q9H773) | -2.36 | 0.79
N4BP1 (UniProt O75113) | -3.42 | –
UniProt O95785 | 1.43 | -1.43
AIMP1 (UniProt Q12904) | -0.755 | -0.647
PPP6R3 (UniProt Q5H9R7) | -1.1 | 0.978
TEAD1 (UniProt P28347) | – | 1.96
APOO (UniProt Q9BUR5) | 2.26 | -0.807
UniProt Q5TAQ9 | -2.19 | -0.111
DDX24 (UniProt Q9GZR7) | 0.892 | 2.84
LMNB2 (UniProt Q03252) | – | 2.17
UniProt P35219 | -0.893 | -0.855
CHST14 (UniProt Q8NCH0) | 1.07 | -0.816

Target | melting temperature shift [1] [°C] | melting temperature shift [2] [°C]
TMEM126B (UniProt Q8IUX1) | -0.132 | -3.61
SUPT16H (UniProt Q9Y5B9) | -0.0594 | -0.215
CD109 (UniProt Q6YHK3) | -1 | -1.02
ZNF830 (UniProt Q96NB3) | 3.03 | –
LIMD1 (UniProt Q9UGP4) | -0.0735 | –
UniProt O75161 | – | -2.36
UniProt Q8N302 | 3.75 | –
POLA2 (UniProt Q14181) | 2.13 | -1.33
SUZ12 (UniProt Q15022) | -0.36 | 0.136
GTF2I (UniProt P78347) | -0.859 | -0.0855
ERO1A (UniProt Q96HE7) | 0.313 | 0.337
TSSC1 (UniProt Q53HC9) | 0.301 | 0.66
SMARCC1 (UniProt Q92922) | 0.229 | -0.793
ALDH9A1 (UniProt P49189) | -0.351 | 0.394
BPTF (UniProt Q12830) | -0.628 | 2.75
CADM1 (UniProt Q9BY67) | 4.33 | –
NFAT5 (UniProt O94916) | 1.51 | –
UniProt Q9NRZ5 | -1.11 | –
LAMP1 (UniProt P11279) | 2.36 | –
VEZT (UniProt Q9HBM0) | 0.423 | -0.0848
HYI (UniProt Q5T013) | -0.862 | 3.06
DHPS (UniProt P49366) | -0.0331 | 1.29
DNTTIP2 (UniProt Q5QJE6) | 1.21 | 0.779

Copied from the list.
Value of VEZT (UniProt Q9HBM0) under melting temperature shift [2] [°C]: -0.0848
Value of NFAT5 (UniProt O94916) under melting temperature shift [1] [°C]: 1.51
Value of ZNF830 (UniProt Q96NB3) under melting temperature shift [1] [°C]: 3.03

Later entries.

Target | melting temperature shift [1] [°C] | melting temperature shift [2] [°C]
ZNF330 (UniProt Q9Y3S2) | – | 2.03
UniProt O43482 | -0.421 | –
ARFGEF1 (UniProt Q9Y6D6) | -0.822 | -0.789
RCN1 (UniProt Q15293) | 1.09 | –
HIBADH (UniProt P31937) | 0.584 | 0.56
UniProt P68400 | -0.2 | -0.448
UniProt O95164 | -0.529 | -1.17
NDUFAF3 (UniProt Q9BU61) | 1.29 | -0.0637
SPG7 (UniProt Q9UQ90) | -1.2 | –
UniProt O76001 | 1.06 | 0.22
GSR (UniProt P00390) | -0.81 | 1.55
PARD6B (UniProt Q9BYG5) | 1.18 | -0.491
USP3 (UniProt Q9Y6I4) | 0.658 | -0.708
OXSR1 (UniProt O95747) | -1.01 | -1.47
ARHGAP5 (UniProt Q13017) | -1.32 | –
BRAT1 (UniProt Q6PJG6) | -1.18 | 1.55
MICU2 (UniProt Q8IYU8) | 0.741 | -1.65
NDRG3 (UniProt Q9UGV2) | -0.311 | 0.0708
PIGS (UniProt Q96S52) | 0.666 | 0.55
PSMC6 (UniProt P62333) | -0.111 | -0.925
UniProt Q8TC71 | – | 0.748
ANTXR1 (UniProt Q9H6X2) | 0.617 | –
TSC22D4 (UniProt Q9Y3Q8) | 5.65 | -0.998

Target | melting temperature shift [1] [°C] | melting temperature shift [2] [°C]
UniProt Q05193 | 0.448 | -0.258
PALLD (UniProt Q8WX93) | -0.144 | -0.385
UniProt P51668 | – | -0.256
UniProt Q3ZCM7 | – | 0.26
RBX1 (UniProt P62877) | 0.0507 | -0.258
RTCA (UniProt O00442) | -0.59 | -0.467
UniProt P84077 | -0.884 | -1.13
TRMT112 (UniProt Q9UI30) | -0.0341 | 1.33
UniProt O15394 | -2.11 | -0.345
UniProt Q96E17 | – | -1.33
S100A13 (UniProt Q99584) | -1.65 | -0.8
RMND5A (UniProt Q9H871) | -0.105 | -0.288
NEK3 (UniProt P51956) | 2.15 | -1.09
UniProt Q01543 | – | 2.1
BUB3 (UniProt O43684) | -0.161 | 0.19
UniProt P54707 | – | -1.12
ATP5L (UniProt O75964) | 0.177 | -2.93
POLR3F (UniProt Q9H1D9) | -0.97 | -0.103
SLC44A1 (UniProt Q8WWI5) | 1.78 | –
UniProt Q96SB3 | – | 0.55
RAB22A (UniProt Q9UL26) | 0.0861 | -0.259
CCDC167 (UniProt Q9P0B6) | 1.93 | –
PGM3 (UniProt O95394) | -0.558 | 0.643

3 entries from above, comma-delimited.
Target,melting temperature shift [1] [°C],melting temperature shift [2] [°C]
UniProt O75161,–,-2.36
ERO1A (UniProt Q96HE7),0.313,0.337
RBX1 (UniProt P62877),0.0507,-0.258

The listing continues:

Target | melting temperature shift [1] [°C] | melting temperature shift [2] [°C]
RPL32 (UniProt P62910) | 0.737 | -0.688
PEX6 (UniProt Q13608) | 0.122 | 0.879
TIA1 (UniProt P31483) | 0.0782 | -0.041
MRGBP (UniProt Q9NV56) | 0.553 | -3.61
UniProt P24821 | 1.02 | 0.865
MCU (UniProt Q8NE86) | 2.06 | -0.877
EXOSC9 (UniProt Q06265) | 2.09 | –
PYCR2 (UniProt Q96C36) | 2.11 | 0.318
RPL7L1 (UniProt Q6DKI1) | 1.11 | 2.14
POLD1 (UniProt P28340) | -0.0745 | -1.63
DAGLB (UniProt Q8NCG7) | -0.758 | -3.11
UniProt O00522 | -1.23 | –
METTL2B (UniProt Q6P1Q9) | -1 | 0.283
PUS7 (UniProt Q96PZ0) | -0.396 | 0.817
MALT1 (UniProt Q9UDY8) | -0.457 | -1.26
PLAUR (UniProt Q03405) | – | 2.71
NKIRAS1 (UniProt Q9NYS0) | -1.24 | -2.19
UniProt P05783 | – | 1.41
NEMP1 (UniProt O14524) | 3.84 | -2.15
UniProt Q9BY11 | – | 2.64
RIOK1 (UniProt Q9BRS2) | -0.728 | -1.09
UniProt Q9BT92 | -0.47 | –
